Assay: in vivo

- Cmax (120 mg): 230 to 534 ng/mL
- Tmax (po): 1.12 to 4 h
SMILES: CC(C)(C(=O)O)c1ccc(C(O)CCCN2CCC(C(O)(c3ccccc3)c3ccccc3)CC2)cc1 (centres unmarked) [Fexofenadine]

Reference: patent publication US7208176B2, “Drug delivery device containing neuraminidase inhibitor and an H1 antagonist” (Osmotica Corp., priority 2001, dated 2007)
